For one molecule, EC50 and Ki results are on record in patent US20090298811A1, “BENZIMIDAZOLONE DERIVATIVES” (Pfizer Inc, priority 2006, published 2009).

The chains behind the UniProt entries cited, without tags or fusion partners.
UniProt P21554, whole entry: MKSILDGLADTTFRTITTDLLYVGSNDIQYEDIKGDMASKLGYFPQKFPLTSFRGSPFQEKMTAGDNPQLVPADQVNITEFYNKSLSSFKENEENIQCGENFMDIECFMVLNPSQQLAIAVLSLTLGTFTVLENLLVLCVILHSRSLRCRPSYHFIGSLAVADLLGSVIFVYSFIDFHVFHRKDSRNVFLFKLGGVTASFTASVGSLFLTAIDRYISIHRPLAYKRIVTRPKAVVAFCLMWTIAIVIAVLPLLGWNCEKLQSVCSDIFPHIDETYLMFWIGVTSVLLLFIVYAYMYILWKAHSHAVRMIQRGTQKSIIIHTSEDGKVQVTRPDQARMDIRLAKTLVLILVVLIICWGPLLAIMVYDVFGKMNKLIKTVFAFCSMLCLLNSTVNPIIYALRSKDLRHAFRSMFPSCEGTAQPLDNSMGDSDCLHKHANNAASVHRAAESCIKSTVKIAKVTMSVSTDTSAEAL

Experiment [1] has as its target T1, human CB1 receptor (Homo sapiens, UniProt P21554). The experiment in a line: GTPγS binding on membranes of CHO cells expressing the human CB1 receptor. The following applies: read-out: GTPγS EC50, CHO cell membranes, [35S] GTPγS. As to the method:
Membrane preparation: CHO cells expressing the human CB1 receptor were grown to 80% confluence in Ham's F-12 Nutrient Medium (Invitrogen) containing 10% fetal bovine serum (Invitrogen), 1% pen/strep (Invitrogen), 1% Nonessential amino acids (Invitrogen) and 500 μg/ml G418 (Invitrogen). Cells were released from flasks using Cell Dissociation Buffer (Invitrogen). Cells were pelleted by centrifugation at 500×G for 5 minutes. Membranes were prepared by resuspending cells in ice cold Assay Buffer (25 mM Tris pH 7.4, 5 mM EDTA, 5 mM EGTA, Complete Protease Inhibitor (Roche)). Cells were lysed with 12 strokes of a dounce homogenizer. Unlysed cells were pelleted by centrifugation at 500×G for 5 minutes. Membranes were pelleted by centrifugation at 25,000×G for 30 minutes. Membranes were resuspended in TEE, dounced 12 strokes, and pelleted a second time at 25,000×G for 30 minutes. Membrane pellet was resuspended in 50 mM Tris pH 7.4, 100 mM NaCl, 3 mM MgCl2, 0.2 mM EGTA, Complete Protease Inhibitor (Roche). Protein concentration was determined using the Micro-BCA Protein Assay Kit (Pierce) using BSA as a standard. […] 40 μl of Microscint-20 (Perkin Elmer) was added per well, and plates were counted using a Top-Count Microplate Scintillation Counter (Perkin Elmer). Binding data were analyzed and EC50 values were calculated using Graph Pad Prism 4.0 Software.
Background: GTPγS is a poorly hydrolysed GTP analogue; its binding reports G protein activation.

Experiment [2] addresses T1, human CB1 receptor. The experiment in a line: Human CB1 receptor binding, [3H] CP-55,940 displacement on HEK cell membranes. The following applies: read-out: CB1 Ki, [3H] CP-55,940 500 pM. As to the method: The Human CB1 receptor binding affinity and other biological activities of the compounds of this invention are determined by the following procedures.
Membrane preparation: Human Embryonic Kidney (HEK) Cells expressing the human CB1 receptor under transcriptional regulation of a tetracycline inducible promoter were grown in Dulbecco's Modified Essential Medium with sodium pyruvate (Invitrogen, Carlsbad, Calif.) containing 10% tetracycline free fetal bovine serum (Clonetech, Mountain View, Calif.) 100 μg/ml hygromycin (Calbiochem, San Diego, Calif.), 5 μg/ml blasticidin (Invitrogen). CB1 receptor expression was induced by addition of 1 μg/ml doxycycline (Calbiochem) and incubation for an additional 24 hours. Cells were released from flasks using Cell Dissociation Buffer (Invitrogen). Cells were pelleted by centrifugation at 500×G for 5 minutes. […] Protein concentration was determined using the Micro-BCA Protein Assay Kit (Pierce, Rockford, Ill.) using BSA as a standard. […] Nonspecific binding was determined by incubation with 50 μM WIN-55,212-2 (Tocris, Ellisville, Mo.). […] 40 μl of Microscint-20 (Perkin Elmer) was added per well, and plates were counted using a Top-Count Microplate Scintillation Counter (Perkin Elmer). Binding data were analyzed and EC50 and Ki values calculated using Graph Pad Prism 4.0 Software.

Each structure is given as a SMILES string. The structures given here were assigned with low confidence; some may be wrong.

What is called EC50 is the midpoint of the concentration-response curve. Broadly, the Ki is the equilibrium dissociation constant of an inhibitor or competing ligand from its target. Turning to `CSCCn1c(=O)n(C(=O)N[C@H](C(N)=O)C(C)(C)C)c2cccc(C)c21`, the EC50 at human CB1 receptor [1] is 15 nM. Besides, on human CB1 receptor [2], the Ki amounted to 0.95 nM.
